Drug screen on melanoma cell lines: cell count

Drugs:
JZL184 (5 µM): O=C(Oc1ccc([N+](=O)[O-])cc1)N1CCC(C(O)(c2ccc3c(c2)OCO3)c2ccc3c(c2)OCO3)CC1
dorsomorphin (2 µM): c1cc(-c2cnn3cc(-c4ccc(OCCN5CCCCC5)cc4)cnc23)ccn1
CHIR-265 (0.4 µM): Cn1c(Nc2ccc(C(F)(F)F)cc2)nc2cc(Oc3ccnc(-c4ncc(C(F)(F)F)[nH]4)c3)ccc21
selumetinib (0.075 µM): Cn1cnc2c(F)c(Nc3ccc(Br)cc3Cl)c(C(=O)NOCCO)cc21
pazopanib (2 µM): Cc1ccc(Nc2nccc(N(C)c3ccc4c(C)n(C)nc4c3)n2)cc1S(N)(=O)=O
tamatinib (2 µM): COc1cc(Nc2ncc(F)c(Nc3ccc4c(n3)NC(=O)C(C)(C)O4)n2)cc(OC)c1OC
nutlin-3 (0.5 µM): COc1ccc(C2=N[C@@H](c3ccc(Cl)cc3)[C@@H](c3ccc(Cl)cc3)N2C(=O)N2CCNC(=O)C2)c(OC(C)C)c1
FK866 (0.05 µM): O=C(/C=C/c1cccnc1)NCCCCC1CCN(C(=O)c2ccccc2)CC1

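Human melanoma cell lines in 1,536-well plates were treated with two drugs together for 72 h, then fixed, stained and imaged. Values are the number of DAPI-stained nuclei as a percentage of the DMSO control: 100 is no effect, lower means fewer cells. Every drug was used at one fixed concentration, the higher of two screened. No replicate spread is given; individual values may be noisy.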
Only some of the drugs and lines screened are listed, without regard to their results.

| # | Drugs | COLO 829 | COLO 792 | WM3619 | C32 | COLO 800 | WM451Lu |
|---|---|---|---|---|---|---|---|
| 1 | tamatinib and pazopanib | 72.1 | 36.9 | 50.2 | 85.5 | 34.6 | 59.2 |
| 2 | tamatinib and JZL184 | 81.3 | 51.5 | 53.8 | 88.1 | 49.3 | 71.4 |
| 3 | selumetinib and tamatinib | 74.4 | 32.6 | 88.4 | 69.1 | 49.0 | 63.2 |
| 4 | FK866 and nutlin-3 | 59.1 | 55.7 | 80.7 | 86.8 | 30.6 | 112 |
| 5 | selumetinib and pazopanib | 88.9 | 60.2 | 68.6 | 78.0 | 79.7 | 83.1 |
| 6 | tamatinib and FK866 | 59.1 | 17.2 | 63.3 | 91.2 | 31.1 | 91.4 |
| 7 | FK866 and pazopanib | 55.3 | 28.3 | 56.7 | 106 | 22.2 | 85.4 |
| 8 | tamatinib and CHIR-265 | 78.9 | 37.9 | 72.6 | 80.1 | 45.3 | 66.5 |
| 9 | dorsomorphin and tamatinib | 72.3 | 57.2 | 43.0 | 61.4 | 35.9 | 63.5 |
| 10 | pazopanib and JZL184 | 86.3 | 99.5 | 101 | 105 | 147 | 125 |
| 11 | nutlin-3 and CHIR-265 | 52.2 | 19.0 | 37.0 | 58.5 | 59.1 | 48.9 |
| 12 | nutlin-3 and JZL184 | 69.1 | 94.1 | 95.4 | 76.9 | 87.2 | 101 |
| 13 | pazopanib and nutlin-3 | 68.7 | 65.1 | 74.3 | 71.2 | 85.2 | 73.1 |
| 14 | CHIR-265 and dorsomorphin | 90.8 | 33.7 | 54.6 | 54.3 | 69.9 | 36.9 |
| 15 | selumetinib and JZL184 | 106 | 84.4 | 72.4 | 88.7 | 185 | 74.4 |
| 16 | FK866 and dorsomorphin | 79.2 | 64.1 | 98.6 | 66.9 | 22.2 | 80.6 |
| 17 | JZL184 and CHIR-265 | 63.7 | 24.8 | 30.7 | 44.9 | 83.0 | 53.0 |
| 18 | selumetinib and nutlin-3 | 83.2 | 56.1 | 49.9 | 84.5 | 78.9 | 57.8 |
| 19 | FK866 and CHIR-265 | 63.1 | 19.2 | 46.8 | 68.7 | 19.8 | 47.5 |
| 20 | pazopanib and CHIR-265 | 42.7 | 30.5 | 53.3 | 71.0 | 32.9 | 45.0 |
| 21 | FK866 and JZL184 | 66.6 | 43.4 | 84.3 | 90.6 | 31.6 | 103 |
| 22 | nutlin-3 and dorsomorphin | 72.2 | 74.6 | 56.9 | 57.9 | 102 | 118 |
| 23 | JZL184 and dorsomorphin | 87.2 | 77.4 | 59.6 | 47.5 | 129 | 66.8 |

For reference, 3 entries once more:

| Drugs | COLO 829 | COLO 792 | WM3619 | C32 | COLO 800 | WM451Lu |
|---|---|---|---|---|---|---|
| JZL184 and dorsomorphin | 87.2 | 77.4 | 59.6 | 47.5 | 129 | 66.8 |
| tamatinib and pazopanib | 72.1 | 36.9 | 50.2 | 85.5 | 34.6 | 59.2 |
| selumetinib and pazopanib | 88.9 | 60.2 | 68.6 | 78.0 | 79.7 | 83.1 |

Values as published with doi:10.1371/journal.pone.0140310, rounded.